# Some of the results follow. Small differences around the control level are noise.
# What was measured:
# ppGalNAc-T3 sensor = experiment: T3 sensor activation Q score (MG/GFP ratio z-score vs DMSO controls) (SD units); higher = more sensor activation (inhibition of ppGalNAc-T3 glycosylation); conditions: HEK293 sensor cells; 10 µM; 6 h
# Description: (§1)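 Cells were treated with compound at 10 uM for 6 h, then MG/GFP ratio was read by flow cytometry (10,000 cells per well, duplicate wells). Q = (R - R_neg)/SD_neg relative to DMSO vehicle controls; the signal rises when the glycosyltransferase is inhibited.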
# ppGalNAc-T2 sensor = experiment: T2 sensor activation Q score (MG/GFP ratio z-score vs DMSO controls) (SD units); higher = more sensor activation (inhibition of ppGalNAc-T2 glycosylation); conditions: HEK293 sensor cells; 10 µM; 6 h
# Description: as §1
SMILES,T3 sensor activation Q score (ppGalNAc-T3 sensor),T2 sensor activation Q score (ppGalNAc-T2 sensor)
On1c(-c2cccc(Cl)c2)nc2c1CCc1nonc1-2,0.015,-0.51
NNC(=O)COc1ccccc1,0.85,0.055
O=C(c1ccc(Br)o1)N(C1CCCCC1)C1CCCCC1,0.44,0.9
Cc1ccc(C(=O)Nc2ccc(C(=O)O)cc2)o1,0.12,-0.195
